The text below walks through data of publication PMC4273223 (Beilstein Journal of Organic Chemistry, 2014).

This data set in a line: general procedure: solution-phase peptide synthesis; EDC/HOAt/TMP (2,4,6-collidine); HATU/HOAt/DIEA/2,4,6-collidine. Particulars: coupling step.
For the substance “Fmoc-(βMe)Phe-(R)dFmcpA-(βMe)Phe-Ile-ODCPM”, the step yield came to 81%.

The substance “Fmoc-(βMe)Phe-(R)tFmcpA-(βMe)Phe-Ile-ODCPM” yielded a step yield of 93%.

On to “Boc-(4-Pe)Pro-[MeZ-a-Thr]-(βMe)Phe-(S)tFmcpA-(βMe)Phe-Ile-ODCPM”, for which the step yield is reported as 92%.

Substance “Boc-(4-Pe)Pro-[MeZ-a-Thr]-(βMe)Phe-(S)dFmcpA-(βMe)Phe-Ile-ODCPM” registered a step yield of 90%.
